This passage reports binding results from article PMC13170660.

No constants are given. Whether binding was seen depends on the method and setting. In cells and extracts the contact can be indirect. These calls come from enrichment with a bait or labelling near it, and not all partners need be listed.

This test concerns the target T1, IgLON5 (mouse (endogenous in primary hippocampal neurons)) (UniProt Q8HW98).
T1 sequence: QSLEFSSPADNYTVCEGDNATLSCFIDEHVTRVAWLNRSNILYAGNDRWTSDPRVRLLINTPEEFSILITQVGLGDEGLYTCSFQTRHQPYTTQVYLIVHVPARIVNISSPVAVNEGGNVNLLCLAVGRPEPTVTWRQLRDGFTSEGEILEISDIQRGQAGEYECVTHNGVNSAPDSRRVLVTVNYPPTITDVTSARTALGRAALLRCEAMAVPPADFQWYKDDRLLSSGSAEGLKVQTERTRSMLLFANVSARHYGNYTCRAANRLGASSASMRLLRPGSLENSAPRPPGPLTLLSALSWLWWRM
Put plainly: proximity labelling; live primary mouse hippocampal neurons (DIV12) treated with α-IgLON5#1 or pCtrl (1 μg/ml, 60 min, 37°C), fixed with 4% PFA, HRP-conjugated α-human secondary antibody, 250 μM biotin-tyramide and 50 μM H2O2 for 1 min; streptavidin bead pulldown and MS; enrichment of α-IgLON5#1 against pCtrl.

B1: Cntn6 (protein, UniProt Q9JMB8 20-999)
chain: EGRFSRPIFIQEPQDVIFPLDLSRSEIILTCTANGYPSPHYRWKQNGTDIDFGMTYHYRLDGGSLAISSPRTDQDIGIYQCLATNPVGTILSRKAKLQFAYIEDFETKTRSTVSVREGQGVVLLCGPPPHFGELSYAWTFNDSPLYVQEDKRRFVSQDTGNLYFAKVEPSDVGNYTCFVTNKEAHRSVQGPPTPLVLRTDGVMGEYEPKIEVRFPETIQAAKDSSIKLECFALGNPVPDISWKRLDGSPMPGKIKYSKSQAILEIPKFQQEDEGFYECIAGNLRGRNLAKGQLIFYAPPEWEQKIQNTYLSIYDSLFWECKASGNPNPSYTWLKNGQRLNTEERIQIENGTLIITMLNISDSGIYQCAAENKYQTIYANAELRVLASAPDFSKNPIKKISVVQVGGDISIECKPNAFPKASISWKRGTENLKQSKRVLFLEDGSLKICNVTRADAGSYTCVATNQFGNGKSSGGLVVKERTIITVPPSKMDVTVGESIVLPCQVSHDPTMEVLFVWYFNGDIIDLKKGVAHFERIGGESVGDLMIRNIQLGHSGKYLCTVQTTLERLSAVADIIVRGPPGPPEDVKVEHISSTTSQLSWRPGPDNNSPIQIFTIQTRTPFSVGWQAVATVPEILNGQTYNATVVGLSPWVEYEFRVVAGNNIGIGEPSKPSELLRTKASVPNVAPGNINGGGGSRSELVITWEAIPEELQNGEGFGYIVMFRPVGTTAWMKERVALVESSKFIYRNESIMPLSPFEVKVGVYNNEGEGSLSTVTIVYSGEDEPQLAPRGTSVQSFSASEMEVSWNAIAWNRNTGRVLGYEVLYWTDNSKESMIGKIRVSGNVTTKNITGLRANTIYFASVRAYNTAGTGPSSLPVNVTTKKSPPSQPPANIAWKLSNSKLCLNWEHVKTMENESEVLGYKILYRQNRQSKTHILETNNTSAELLVPFEEDYLIEIRTVSDGGDGSSSEEIRIPKMSSLSS
Take B1: the binding entry was “binds”.

B2: NTM (=IgLON2) (protein, UniProt Q99PJ0 34-321)
chain: GDATFPKAMDNVTVRQGESATLRCTIDNRVTRVAWLNRSTILYAGNDKWCLDPRVVLLSNTQTQYSIEIQNVDVYDEGPYTCSVQTDNHPKTSRVHLIVQVSPKIVEISSDISINEGNNISLTCIATGRPEPTVTWRHISPKAVGFVSEDEYLEIQGITREQSGEYECSASNDVAAPVVRRVKVTVNYPPYISEAKGTGVPVGQKGTLQCEASAVPSAEFQWFKDDKRLVEGKKGVKVENRPFLSKLTFFNVSEHDYGNYTCVASNKLGHTNASIMLFGPGAVSEVNN
Consider B2, for which the binding entry is given as “binds”.
